In this experiment the target is GCN4-SUN2 (His6-GCN4 fusion of the SUN domain of human SUN2, residues 522–717), wild-type (human) (UniProt Q9UH99). As to the kind of experiment: SEC; GCN4-SUN and MBP-KASH co-expressed, purified by amylose affinity and ion exchange, whole elution pooled and run on analytical gel filtration (Superdex 200 Increase 10/300 GL) in 20 mM Tris pH 8.0, 150 mM KCl, 2 mM DTT; fractions by SDS-PAGE; both purified.

Chains of the proteins cited; added tags and fusions are not shown. Residues count along the entry.
UniProt Q9UH99, residues 522-717: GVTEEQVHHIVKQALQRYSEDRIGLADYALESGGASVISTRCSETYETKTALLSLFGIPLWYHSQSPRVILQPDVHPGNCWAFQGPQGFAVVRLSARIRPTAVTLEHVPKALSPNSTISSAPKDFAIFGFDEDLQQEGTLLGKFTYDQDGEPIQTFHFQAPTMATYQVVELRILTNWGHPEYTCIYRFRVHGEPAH

Drawing on PMC7800377, this text covers binding for 2 molecules.

No constants are given. Whether binding was seen depends on the method and setting. Some entries that bind do so weakly or less than the wild type. Where a sequence is shown, tags or fusion partners need not be part of it.

For ASGGPCCSHARIPRTPYLVLSYVNGLPPV (domain or fragment, UniProt Q8N205 376-404) [MBP-KASH4 (His6-MBP fusion of the KASH domain of human Nesprin-4, residues 376–404)], the binding result is given as “binds”. The result for GPSPPPTWPHLQLCYLQPPPV (domain or fragment, UniProt Q8N6L0 542-562) [MBP-KASH5 (His6-MBP fusion of the KASH domain of human KASH5, residues 542–562)] reads “binds”.
